The record followed here is publication PMC8797470, “Disruption of the pentraxin 3/CD44 interaction as an efficient therapy for triple‐negative breast cancers” (Clinical and Translational Medicine, 2022).

The chains behind the UniProt entries cited, without tags or fusion partners. Where a name states a change or a piece, a line headed by the entry shows the natural chain unless it says otherwise.
UniProt P16070: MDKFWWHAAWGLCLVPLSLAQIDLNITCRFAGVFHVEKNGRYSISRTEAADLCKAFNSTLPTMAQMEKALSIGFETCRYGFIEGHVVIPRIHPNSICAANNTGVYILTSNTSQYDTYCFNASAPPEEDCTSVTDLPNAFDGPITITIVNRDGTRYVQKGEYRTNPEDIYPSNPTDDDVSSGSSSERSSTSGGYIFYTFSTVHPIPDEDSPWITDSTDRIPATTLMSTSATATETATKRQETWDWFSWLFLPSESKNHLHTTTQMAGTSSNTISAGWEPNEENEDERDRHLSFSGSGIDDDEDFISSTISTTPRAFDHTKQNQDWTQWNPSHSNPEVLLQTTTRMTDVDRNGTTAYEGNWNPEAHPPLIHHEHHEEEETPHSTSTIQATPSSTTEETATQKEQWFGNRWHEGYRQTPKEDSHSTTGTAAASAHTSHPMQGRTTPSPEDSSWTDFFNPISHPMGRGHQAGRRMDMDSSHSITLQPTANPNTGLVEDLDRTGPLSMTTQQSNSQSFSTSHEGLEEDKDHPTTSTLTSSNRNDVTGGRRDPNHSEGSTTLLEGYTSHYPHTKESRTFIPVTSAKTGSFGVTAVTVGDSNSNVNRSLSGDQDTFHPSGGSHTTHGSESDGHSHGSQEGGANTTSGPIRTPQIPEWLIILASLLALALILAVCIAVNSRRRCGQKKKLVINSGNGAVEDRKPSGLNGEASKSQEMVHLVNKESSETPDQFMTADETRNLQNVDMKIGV
UniProt P26022: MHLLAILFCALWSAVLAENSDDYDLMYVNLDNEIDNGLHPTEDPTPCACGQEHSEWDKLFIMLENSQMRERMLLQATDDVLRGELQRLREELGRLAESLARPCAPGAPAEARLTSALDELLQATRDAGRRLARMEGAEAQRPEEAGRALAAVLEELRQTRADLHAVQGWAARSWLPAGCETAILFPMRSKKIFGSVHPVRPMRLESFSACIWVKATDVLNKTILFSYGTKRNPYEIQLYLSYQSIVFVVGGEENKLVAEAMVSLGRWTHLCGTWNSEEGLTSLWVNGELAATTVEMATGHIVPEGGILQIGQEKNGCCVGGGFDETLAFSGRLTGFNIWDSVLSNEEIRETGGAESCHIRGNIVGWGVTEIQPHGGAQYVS

Test [1] has as its target CD44 (12211-H08H; Sino Biological Inc.) (UniProt P16070). In words: ELISA; wells coated with 10 μg/ml CD44 in PBS pH 7.2, blocked with 3% milk; HRP-conjugated recombinant PTX3, PTX3/N, PTX3/C or PTX3NA 2 h; TMB, OD 450 nm; both purified. For orientation: ELISA stands for enzyme-linked immunosorbent assay.
The target is the same in test [2]. The test can be described thus: ELISA; competition: Ab-10 or Ab-49 pre-incubated with 5 μg/ml HRP-conjugated PTX3 in PBS 2 h at RT, mixture on CD44-coated wells 1 h at RT; TMB, OD 450 nm; both purified.
Test [3] has the same target. The test can be described thus: ELISA; competition: wells coated with CD44; biotinylated peptides RI37 or GI40 at the indicated concentrations 2 h, washed, then 5 μg/ml HRP-conjugated PTX3 1 h at RT; TMB, OD 450 nm; both purified.
Test [4] has the same target. The test can be described thus: ELISA; wells coated with 10 μg/ml CD44; biotinylated PTX3-derived peptides (AD9, GR9, P2rdAD9, P12rdGR9 and other truncated peptides) 2 h; OD 450 nm; both purified.

No constants are given. Whether binding was seen depends on the method and setting. A result given as binding can be weak or reduced; the word gives no strength.

For the substance “C-terminus of PTX3 (PTX3/C, amino acids 180–381), HRP-conjugated (from UniProt P26022 180-381) (domain or fragment)”, in test [1], the binding entry was “binds”.
In the case of “N-terminus of PTX3 (PTX3/N, amino acids 19–182), HRP-conjugated (from UniProt P26022 19-182) (domain or fragment)”, in test [1], the binding entry is recorded as “no binding”.
Regarding “horseradish peroxidase (HRP)-conjugated recombinant PTX3 (from UniProt P26022 18-381) (ligand)”, the binding result in test [2], in test [3] and in test [1] was “binds” throughout.
For “peptide AD9 (PTX3 amino acids 209–217), biotinylated (from UniProt P26022 209-217)”, the binding result in test [4] was “binds”.
As for “peptide GI40 (PTX3 amino acids 320–359), biotinylated (from UniProt P26022 320-359)”, the binding entry in test [3] is recorded as “binds”.
As for “peptide GR9 (PTX3 amino acids 352–360), biotinylated (from UniProt P26022 352-360)”, the binding result in test [4] is “binds”.
On to “peptide RI37 (PTX3 amino acids 200–236), biotinylated (from UniProt P26022 200-236)”, for which the binding result in test [3] is “binds”.
For the substance “recombinant PTX3 Asn220 mutant (PTX3NA), HRP-conjugated (from UniProt P26022) (ligand)”, the binding result in test [1] was “binds”.
